# In PubChem BioAssay AID328 (DTP/NCI, 2004):
# The list is a part of this screen's results and no random one: it is rich in T/C values a quarter to a half above the control, in often repeated tests (any T/C) and in doses without a T/C. Other doses and runs of a compound stand elsewhere. T/C: endpoint of the treated group in % of that of the vehicle group. Some doses have a count of surviving animals in place of a T/C: the source holds a T/C of zero for them, seemingly a mark for toxic or unscored doses. Some doses without a T/C left all or most animals alive at the check, yet need not have been tolerated: survival well below the control is almost never listed, so the zero probably covers shortened survival too. Survivors were counted at the toxicity check, usually on the fifth day, unless a day is given; later deaths do not show. Schedules are NCI's codes, read here as Q, the interval in days (D) or hours (H), X, the number of doses. For survival time, the PubChem record calls one and a half times the control and up active, and a quarter to a half above the control has no call in these data; cut-offs in other NCI protocols can differ. Some T/C values carry the count of animals alive at the toxicity check (mostly the fifth day); without a count, all were alive then. Some doses were run more than once; the values are given in rising order.
# Test system: BDF1 mice, P388 leukemia ip, median survival T/C
# Experiment: NCI In Vivo Anticancer Drug Screen. Data for tumor model P388 Leukemia (intraperitoneal) in B6D2F1 (BDF1) mice
# Details: T/C endpoint: median survival time, higher T/C = longer survival
# Procedure, shortened: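 Transplantable tumour in mice; compound vs vehicle dosing; survival scored; ratio of treated to control reported.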
# [1] = dose: 100.0 mg/kg/injection, schedule: Q01DX009 (ip), vehicle: Klucel (hydroxypropylcellulose) (HPC)
# [2] = dose: 25.0 mg/kg/injection, schedule: Q01DX009 (ip), vehicle: saline
# [3] = dose: 50.0 mg/kg/injection, schedule: Q01DX009 (ip), vehicle: saline
# [4] = dose: 100.0 mg/kg/injection, schedule: Q01DX009 (ip), vehicle: saline
# [5] = dose: 200.0 mg/kg/injection, schedule: Q01DX009 (ip), vehicle: saline
# [6] = dose: 400.0 mg/kg/injection, schedule: Q01DX001 (ip), vehicle: saline with Tween-80
smiles,measurement,setting,value
Nc1ncn(C2OC(CO)C(O)C2O)c(=O)n1 (stereo not given),T/C,"dose: 0.93 mg/kg/injection, schedule: Q04DX003 (ip), vehicle: saline",137 % of control
same,T/C,"dose: 1.25 mg/kg/injection, schedule: Q04DX003 (ip), vehicle: saline, evaluated on day 5",122 % of control
same,T/C,"dose: 1.25 mg/kg/injection, schedule: Q04DX003 (ip), vehicle: saline, evaluated on day 8","97 [4 of 6 alive], 110, 120 % of control"
same,T/C,"dose: 1.3 mg/kg/injection, schedule: Q04DX003 (ip), vehicle: saline",145 % of control
same,T/C,"dose: 2.12 mg/kg/injection, schedule: Q04DX003 (ip), vehicle: saline",136 % of control
same,T/C,"dose: 2.5 mg/kg/injection, schedule: Q04DX003 (ip), vehicle: saline, evaluated on day 5",150 % of control
same,T/C,"dose: 2.5 mg/kg/injection, schedule: Q04DX003 (ip), vehicle: saline, evaluated on day 8","91 [4 of 6 alive], 97 [6 of 7 alive], 142 % of control"
same,T/C,"dose: 5.0 mg/kg/injection, schedule: Q04DX003 (ip), vehicle: saline, evaluated on day 5",176 % of control
same,T/C,"dose: 5.0 mg/kg/injection, schedule: Q04DX003 (ip), vehicle: saline, evaluated on day 8","100, 100 [6 of 7 alive], 145 % of control"
same,T/C,"dose: 8.0 mg/kg/injection, schedule: Q01DX005 (ip), vehicle: saline",125 % of control
same,T/C,"dose: 8.5 mg/kg/injection, schedule: Q04DX003 (ip), vehicle: saline",127 % of control
same,T/C,"dose: 10.0 mg/kg/injection, schedule: Q04DX003 (ip), vehicle: saline, evaluated on day 5",254 % of control
same,T/C,"dose: 10.0 mg/kg/injection, schedule: Q04DX003 (ip), vehicle: saline, evaluated on day 8","167, 201, 227 % of control"
same,survivor count,"dose: 13.0 mg/kg/injection, schedule: Q01DX009 (ip), vehicle: saline",6 of 6
same,survivor count,"dose: 16.0 mg/kg/injection, schedule: Q01DX005 (ip), vehicle: saline",6 of 6
same,T/C,"dose: 18.0 mg/kg/injection, schedule: Q04DX003 (ip), vehicle: saline",149 % of control
same,survivor count,"dose: 19.0 mg/kg/injection, schedule: Q01DX009 (ip), vehicle: saline",6 of 6
same,T/C,"dose: 20.0 mg/kg/injection, schedule: Q04DX003 (ip), vehicle: saline, evaluated on day 5",203 % of control
same,T/C,"dose: 20.0 mg/kg/injection, schedule: Q04DX003 (ip), vehicle: saline, evaluated on day 8","125, 158, 163 % of control"
same,T/C,"dose: 20.0 mg/kg/injection, schedule: Q04DX004 (ip), vehicle: saline",138 % of control
same,T/C,"dose: 24.0 mg/kg/injection, schedule: Q04DX004 (ip), vehicle: saline",136 % of control
same,T/C,"dose: 28.0 mg/kg/injection, schedule: Q04DX003 (ip), vehicle: saline",145 % of control
same,survivor count,"dose: 30.0 mg/kg/injection, schedule: Q04DX003 (ip), vehicle: saline",8 of 8
same,survivor count,"dose: 32.0 mg/kg/injection, schedule: Q01DX005 (ip), vehicle: saline",0 of 6
same,T/C,"dose: 33.0 mg/kg/injection, schedule: Q01DX001 (ip), vehicle: saline",148 % of control
same,T/C,"dose: 40.0 mg/kg/injection, schedule: Q04DX003 (ip), vehicle: saline, evaluated on day 5",79 % of control
same,T/C,"dose: 40.0 mg/kg/injection, schedule: Q04DX003 (ip), vehicle: saline, evaluated on day 8","104, 109, 121 % of control"
same,T/C,"dose: 50.0 mg/kg/injection, schedule: Q01DX001 (ip), vehicle: saline, evaluated on day 5","138, 184, 185 % of control"
same,T/C,"dose: 50.0 mg/kg/injection, schedule: Q01DX001 (ip), vehicle: saline, evaluated on day 60",184 % of control
same,T/C,"dose: 75.0 mg/kg/injection, schedule: Q01DX001 (ip), vehicle: saline, evaluated on day 5","160, 169, 185 % of control"
same,T/C,"dose: 75.0 mg/kg/injection, schedule: Q01DX001 (ip), vehicle: saline, evaluated on day 60",185 % of control
same,T/C,"dose: 100.0 mg/kg/injection, schedule: Q01DX001 (ip), vehicle: saline, evaluated on day 5","155, 175, 184 % of control"
same,T/C,"dose: 100.0 mg/kg/injection, schedule: Q01DX001 (ip), vehicle: saline, evaluated on day 60",184 % of control
same,T/C,"dose: 125.0 mg/kg/injection, schedule: Q01DX001 (ip), vehicle: saline, evaluated on day 5","123, 185, 191 % of control"
same,T/C,"dose: 125.0 mg/kg/injection, schedule: Q01DX001 (ip), vehicle: saline, evaluated on day 60",185 % of control [9 of 10 alive]
same,T/C,"dose: 150.0 mg/kg/injection, schedule: Q01DX001 (ip), vehicle: saline",129 % of control
same,survivor count,"dose: 165.0 mg/kg/injection, schedule: Q01DX001 (ip), vehicle: saline",3 of 10
Cc1ccc2c(c1)=N/C(=N\c1nc(O)c(O)[nH]1)N=2,T/C,[1],127 % of control
same,survivor count,"dose: 210.0 mg/kg/injection, schedule: Q01DX009 (ip), vehicle: Klucel (hydroxypropylcellulose) (HPC)",0 of 6
N#CC1CCCC1=O (stereo not given),survivor count,"dose: 20.0 mg/kg/injection, schedule: Q01DX009 (ip), vehicle: saline",5 of 6
COC(=O)C1C2CC[N+]3(CCCCC13)O2 (stereo not given),survivor count,[2],1 of 6
same,survivor count,[3],1 of 6
same,survivor count,[4],4 of 6
same,survivor count,[5],0 of 6
c1ccc(N2CCCCCN2c2ccccc2)cc1,survivor count,[6],6 of 6
CCN(CC)CCNC(=S)N/N=C(C)\C(C)=N/NC(=S)NCCN(CC)CC,survivor count,[2],4 of 6
CC1(C)N=C(N)N=C(N)N1c1ccc(CNC(=O)Nc2ccc(S(=O)(=O)F)cc2)c(Cl)c1,T/C,"dose: 59.0 mg/kg/injection, schedule: Q04DX003 (ip), vehicle: saline with Tween-80",149 % of control
N=C(N)c1ccc(N=C(N)Nc2ccc(C(=N)N)cc2)cc1,survivor count,[4],2 of 6
same,survivor count,[5],0 of 6
CCCN=C(N)c1ccc(N=C(N)c2ccc(N=C(N)c3ccc(C(N)=NCCC)cc3)cc2)cc1,T/C,"dose: 6.6 mg/kg/injection, schedule: Q01DX009 (ip), vehicle: saline",140 % of control
COC1=CC(=O)C=C(OC)C1=O,survivor count,"dose: 16.0 mg/kg/injection, schedule: Q01DX010 (ip), vehicle: saline",3 of 6
OCC1OC(n2ccc3c2ncn2nnnc32)C(O)C1O (stereo not given),survivor count,[3],6 of 6
same,survivor count,"dose: 100.0 mg/kg/injection, schedule: Q04DX003 (ip), vehicle: saline",6 of 6
COc1ccc(OC)c([N+](=O)[O-])c1,survivor count,[1],6 of 6
CC(=O)CC(C)=O.CC(=O)CC(C)=O.[CH3][Sn][CH3],T/C,"dose: 100.0 mg/kg/injection, schedule: Q01DX001 (ip), vehicle: Klucel (hydroxypropylcellulose) (HPC)",132 % of control
COc1ccc2nc3cc(Cl)ccc3c(NCCCNCCCCNCCCNc3c4ccc(Cl)cc4nc4ccc(OC)cc34)c2c1,survivor count,"dose: 5.0 mg/kg/injection, schedule: Q01DX009 (ip), vehicle: saline with Tween-80",5 of 6
same,survivor count,"dose: 10.0 mg/kg/injection, schedule: Q01DX009 (ip), vehicle: saline with Tween-80",1 of 6
COC(=O)C[C@](O)(CCC(C)C)C(=O)O[C@@H]1C(OC)=C[C@]23CCCN2CCc2cc4c(cc2[C@H]13)OCO4,T/C,"dose: 0.5 mg/kg/injection, schedule: Q01DX010 (ip), vehicle: saline",127 and 145 % of control
same,T/C,"dose: 4.0 mg/kg/injection, schedule: Q01DX010 (ip), vehicle: saline",140 % of control
COc1ccc(C(=O)OCCN(CCN(CCOC(=O)c2ccc(OC)cc2)C(=O)c2ccc(OC)cc2)C(=O)c2ccc(OC)cc2)cc1,survivor count,"dose: 25.0 mg/kg/injection, schedule: Q01DX009 (ip), vehicle: Klucel (hydroxypropylcellulose) (HPC)",6 of 6
same,survivor count,"dose: 50.0 mg/kg/injection, schedule: Q01DX009 (ip), vehicle: Klucel (hydroxypropylcellulose) (HPC)",5 of 6
same,survivor count,[1],5 of 6
same,survivor count,"dose: 200.0 mg/kg/injection, schedule: Q01DX009 (ip), vehicle: Klucel (hydroxypropylcellulose) (HPC)",6 of 6
same,survivor count,"dose: 400.0 mg/kg/injection, schedule: Q04DX003 (ip), vehicle: Klucel (hydroxypropylcellulose) (HPC)",5 of 6
Cc1ccc(N2CCN(C3=CCC(C(C)C)CC3)CC2)cc1Cl (stereo not given),survivor count,[6],1 of 6
